## Screening data, single-dose tests

The chains behind the UniProt entries cited, without tags or fusion partners.
UniProt P9WNZ1, whole entry: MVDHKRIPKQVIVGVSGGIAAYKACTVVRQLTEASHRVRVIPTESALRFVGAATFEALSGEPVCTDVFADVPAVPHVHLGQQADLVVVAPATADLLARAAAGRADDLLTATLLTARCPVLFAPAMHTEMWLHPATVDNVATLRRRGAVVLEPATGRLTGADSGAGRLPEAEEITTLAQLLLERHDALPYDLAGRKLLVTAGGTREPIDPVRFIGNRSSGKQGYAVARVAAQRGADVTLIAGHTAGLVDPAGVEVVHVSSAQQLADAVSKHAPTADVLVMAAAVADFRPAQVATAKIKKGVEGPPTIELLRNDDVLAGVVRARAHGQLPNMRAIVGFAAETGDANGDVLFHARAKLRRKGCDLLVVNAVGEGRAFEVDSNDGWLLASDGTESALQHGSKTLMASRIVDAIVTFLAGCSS

Data taken from ChEMBL document CHEMBL3988442, “University of Dundee, Small-Polar-MMV Screening Library” (2021).

Values are the deposited “Percent Effect”, in %.
The controls that fix the scale are not given in the record; negative values are as filed.
The compounds are a random part of those screened.

Toxoplasma: 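Assay of Toxoplasma gondii numbers, read through their beta-galactosidase reporter with a colour substrate. Concentration: 10 µM. Higher reads as fewer parasites (inferred from which compounds were picked for retests). Of about 67,000 compounds tested this way, about 260 (0.38%) reached 50% or more in at least one test.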
CoaBC: 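Enzyme assay of CoaBC with a phosphate dye (Biomol Green) read at 650 nm. Target: Coenzyme A biosynthesis protein CoaBC, Mycobacterium tuberculosis (UniProt P9WNZ1). Tested at 30 µM. Higher reads as stronger inhibition, judged from the few compounds that gave an IC50. Most strong results did not repeat in a second test. Size under these conditions: about 67,000 compounds, about 40 of them at 50% or above in at least one test.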

{"compound": "[H][C@]12CC[C@]([H])(CN(Cc3ccccc3)C1)N(Cc1snnc1C)C2", "Toxoplasma": -4.463}
{"compound": "c1ccc(COc2ccccc2CNC2CCc3ncnn3C2)cc1", "stereo": "stereo not shown", "Toxoplasma": -19.95, "CoaBC": 3.158}
{"compound": "COc1ccc(S(=O)(=O)N2CCC(Cn3ccnc3)CC2)cc1", "Toxoplasma": 8.088, "CoaBC": 1.459}
{"compound": "O=C(Nc1ccccc1N1CCOC1=O)N1CCSCC1", "Toxoplasma": 1.902, "CoaBC": -9.259}
{"compound": "COCc1nn(C(C)C)c2c1CCN(Cc1ccc(C)s1)C2.O=C(O)C(F)(F)F", "Toxoplasma": -8.389}
{"compound": "COc1ccc(C(=O)N(CCO)Cc2ccccc2)c(OC)n1", "Toxoplasma": 44.34, "CoaBC": 0.2427}
{"compound": "O=C(NCCc1ccc(F)cc1)NC1CCCc2c1cnn2CCO", "stereo": "stereo not shown", "Toxoplasma": 12.91, "CoaBC": -11.98}
{"compound": "Cc1nn(C)c2c(=O)n(Cc3ccc(C#N)cc3)nnc12", "Toxoplasma": 39.12, "CoaBC": 1.155}
{"compound": "COc1cccc(CCC2CCCN(Cc3ncc[nH]3)C2)c1", "stereo": "stereo not shown", "Toxoplasma": 8.582, "CoaBC": 1.648}
{"compound": "CN1CCCN(C(=O)c2ccnn2-c2ccc3ccccn23)CC1", "CoaBC": -0.2469}
{"compound": "CCc1nc(CCNC(=O)Nc2ccc(C(=O)NC)cc2C)cs1", "Toxoplasma": -4.846, "CoaBC": -3.125}
{"compound": "O=C(c1[nH]nc(C2CC2)c1Cl)N1CCN(C2CC2)CC1", "Toxoplasma": 1.945}
{"compound": "CCS(=O)(=O)c1ncc(CN2CCCC2)n1CCc1ccccc1", "Toxoplasma": -1.869, "CoaBC": -0.9926}
{"compound": "[H][C@]1([C@@]2(C)CC[C@H](O)C(C)(C)O2)CC2(CCN(c3cnccn3)CC2)CO1", "Toxoplasma": 27.14}
{"compound": "Cc1nc(CNC2CC(=O)N(CCc3cccc(Cl)c3)C2)c[nH]1", "stereo": "stereo not shown", "Toxoplasma": -7.182, "CoaBC": 7.27}
{"compound": "Cc1ccc(NC(=O)c2ccc(N3CCCCC3)nn2)c(Cl)c1", "Toxoplasma": -5.775, "CoaBC": 0.4202}
{"compound": "CCCNC(=O)Cn1nc(C)c2cnn(C(C)(C)C)c2c1=O", "Toxoplasma": -9.186, "CoaBC": -2.622}
{"compound": "Cc1nc(CNCc2c(C)nn(C)c2N2CCOCC2)cs1", "Toxoplasma": -45.59, "CoaBC": 0.266}
{"compound": "CCn1ncc(Cl)c1CN(C)C(=O)CCn1ncc(Br)c1C", "Toxoplasma": 19.09, "CoaBC": -19.27}
{"compound": "CCC(C(=O)N(C)Cc1cc(COC)[nH]n1)n1cccn1", "stereo": "stereo not shown", "Toxoplasma": -8.439, "CoaBC": 2.427}
{"compound": "CC(C)C(=O)N1CCCN(C(=O)NC2CCc3ccccc3C2)CC1", "stereo": "stereo not shown", "Toxoplasma": 6.5, "CoaBC": -9.677}
{"compound": "COCCC(=O)N(C)CCC1=CCN(C)CC1", "Toxoplasma": 2.377, "CoaBC": 0.6472}

Some entries from above, unchanged:

{"compound": "O=C(c1[nH]nc(C2CC2)c1Cl)N1CCN(C2CC2)CC1", "Toxoplasma": 1.945}
{"compound": "CCc1nc(CCNC(=O)Nc2ccc(C(=O)NC)cc2C)cs1", "Toxoplasma": -4.846, "CoaBC": -3.125}
{"compound": "O=C(Nc1ccccc1N1CCOC1=O)N1CCSCC1", "Toxoplasma": 1.902, "CoaBC": -9.259}